Here are results for 1 molecule from article PMC9132451.

Protein sequences, listed by entry. Tags and fused reporters are not part of them. Residues count along the entry.
UniProt P23818, residues 19-907: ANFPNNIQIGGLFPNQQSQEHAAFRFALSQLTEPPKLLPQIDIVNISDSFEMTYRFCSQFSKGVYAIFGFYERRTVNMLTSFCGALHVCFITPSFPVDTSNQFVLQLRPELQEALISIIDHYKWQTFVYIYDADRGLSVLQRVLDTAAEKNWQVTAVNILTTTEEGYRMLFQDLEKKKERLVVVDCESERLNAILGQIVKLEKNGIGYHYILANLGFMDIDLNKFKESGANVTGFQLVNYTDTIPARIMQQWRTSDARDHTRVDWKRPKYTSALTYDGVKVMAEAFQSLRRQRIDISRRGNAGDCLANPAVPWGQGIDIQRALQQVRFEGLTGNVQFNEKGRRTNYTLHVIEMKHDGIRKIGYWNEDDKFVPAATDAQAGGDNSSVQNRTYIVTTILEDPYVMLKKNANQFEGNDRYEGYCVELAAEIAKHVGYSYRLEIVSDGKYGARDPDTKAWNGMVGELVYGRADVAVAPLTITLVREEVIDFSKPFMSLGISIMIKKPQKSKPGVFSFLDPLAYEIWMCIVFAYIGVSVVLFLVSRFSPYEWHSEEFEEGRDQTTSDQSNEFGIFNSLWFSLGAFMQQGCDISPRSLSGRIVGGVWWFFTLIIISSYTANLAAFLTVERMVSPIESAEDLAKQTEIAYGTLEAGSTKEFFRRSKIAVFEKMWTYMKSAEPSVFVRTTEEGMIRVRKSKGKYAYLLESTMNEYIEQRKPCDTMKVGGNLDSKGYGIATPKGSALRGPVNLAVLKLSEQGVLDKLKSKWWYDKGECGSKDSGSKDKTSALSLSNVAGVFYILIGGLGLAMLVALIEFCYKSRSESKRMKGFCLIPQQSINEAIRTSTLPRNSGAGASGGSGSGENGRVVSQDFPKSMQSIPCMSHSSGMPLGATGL

The target in the assay is GluA1 (AMPA-type glutamate receptor subunit), endogenous (mouse (endogenous in mouse brain)) (UniProt P23818). Briefly: co-IP; endogenous proteins; 4 mg P3 (synaptosomal membrane fraction) lysate of mouse brain in 50 mM tris-HCl, 150 mM NaCl, 1% n-dodecyl β-D-maltoside; 3 μg antibody or IgG control, Protein A/G magnetic beads, 4°C; immunoblotting.

Results are given in words; binding and its absence hold for the method and conditions named. In cells and extracts the contact can be indirect. Some binding calls cover weakened binding; strength is not graded here.

B1: clathrin assembly lymphoid myeloid leukemia protein (CALM), endogenous (protein, UniProt Q7M6Y3 1-660)
chain: MSGQSLTDRITAAQHSVTGSAVSKTVCKATTHEIMGPKKKHLDYLIQCTNEMNVNIPQLADSLFERTTNSSWVVVFKSLITTHHLMVYGNERFIQYLASRNTLFNLSNFLDKSGLQGYDMSTFIRRYSRYLNEKAVSYRQVAFDFTKVKRGADGVMRTMNTEKLLKTVPIIQNQMDALLDFNVNSNELTNGVINAAFMLLFKDAIRLFAAYNEGIINLLEKYFDMKKNQCKEGLDIYKKFLTRMTRISEFLKVAEQVGIDRGDIPDLSQAPSSLLDALEQHLASLEGKKIKDSTAASRATTLSNAVSSLASTGLSLTKVDEREKQAALEEEQARLKALKEQRLKELAKKPHTSLTTAASPVSTSAGGIMTAPAIDIFSTPSSSNSTSKLPNDLLDLQQPTFHPSVHAMSAAPQGASTWGDPFSATLDAVEDAIPSLNPFLTKSSGDVHLPIASDVSTFTTRTPTHEMFVGFSPSPVAQPHSSAGLNVDFESVFGNKSTNVAVDSGGFDELGGLLKPTVASQNQSLPVAKLPPNKLVSDDLDSSLANLVGNLGIGNGTTKNDVSWSQPGEKKLTGGSNWQPKVAPTTAWSAATMNGMHFPQYAPPVMAYPATTPTGMIGYGIPPQMGSVPVMTQPTLIYSQPVMRPPNPFGPVSGAQIQFM
Regarding B1, the binding result is recorded as “binds”.
